# Assay results taken from the supplement of paper PMC12067093, “Discovery and optimisation of a covalent ligand for TRIM25 and its application to targeted protein ubiquitination” (Chemical Science, 2025).
# Protein sequences, listed by entry. Tags and fused reporters are not part of them. Lines headed by an entry give the natural chain unless they say otherwise; changes in a name come on top.
# UniProt Q15020: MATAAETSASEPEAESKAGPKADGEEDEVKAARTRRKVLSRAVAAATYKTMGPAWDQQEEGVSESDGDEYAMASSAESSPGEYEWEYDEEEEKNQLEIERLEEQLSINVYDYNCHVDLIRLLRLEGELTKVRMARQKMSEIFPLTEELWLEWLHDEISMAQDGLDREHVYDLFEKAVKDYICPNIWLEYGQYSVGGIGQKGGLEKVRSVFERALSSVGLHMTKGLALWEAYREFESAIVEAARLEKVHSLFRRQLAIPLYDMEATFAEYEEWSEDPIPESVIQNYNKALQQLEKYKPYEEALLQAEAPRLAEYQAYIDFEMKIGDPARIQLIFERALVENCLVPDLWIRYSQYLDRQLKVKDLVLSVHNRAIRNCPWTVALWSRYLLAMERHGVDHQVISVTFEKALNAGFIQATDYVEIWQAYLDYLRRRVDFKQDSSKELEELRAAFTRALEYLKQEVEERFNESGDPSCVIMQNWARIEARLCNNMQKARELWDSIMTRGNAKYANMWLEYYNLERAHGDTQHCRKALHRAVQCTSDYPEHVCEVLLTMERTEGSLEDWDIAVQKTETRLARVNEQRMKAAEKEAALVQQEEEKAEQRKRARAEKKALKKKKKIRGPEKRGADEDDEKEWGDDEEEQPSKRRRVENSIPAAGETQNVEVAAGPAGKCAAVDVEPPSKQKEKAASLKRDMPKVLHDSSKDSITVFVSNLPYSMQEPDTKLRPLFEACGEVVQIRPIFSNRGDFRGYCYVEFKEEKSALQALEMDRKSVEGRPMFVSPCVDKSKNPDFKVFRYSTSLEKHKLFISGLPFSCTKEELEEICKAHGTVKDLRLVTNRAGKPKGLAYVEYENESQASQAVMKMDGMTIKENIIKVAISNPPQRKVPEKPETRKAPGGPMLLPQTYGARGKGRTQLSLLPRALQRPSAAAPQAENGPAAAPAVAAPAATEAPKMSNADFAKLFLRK
# UniProt O94855: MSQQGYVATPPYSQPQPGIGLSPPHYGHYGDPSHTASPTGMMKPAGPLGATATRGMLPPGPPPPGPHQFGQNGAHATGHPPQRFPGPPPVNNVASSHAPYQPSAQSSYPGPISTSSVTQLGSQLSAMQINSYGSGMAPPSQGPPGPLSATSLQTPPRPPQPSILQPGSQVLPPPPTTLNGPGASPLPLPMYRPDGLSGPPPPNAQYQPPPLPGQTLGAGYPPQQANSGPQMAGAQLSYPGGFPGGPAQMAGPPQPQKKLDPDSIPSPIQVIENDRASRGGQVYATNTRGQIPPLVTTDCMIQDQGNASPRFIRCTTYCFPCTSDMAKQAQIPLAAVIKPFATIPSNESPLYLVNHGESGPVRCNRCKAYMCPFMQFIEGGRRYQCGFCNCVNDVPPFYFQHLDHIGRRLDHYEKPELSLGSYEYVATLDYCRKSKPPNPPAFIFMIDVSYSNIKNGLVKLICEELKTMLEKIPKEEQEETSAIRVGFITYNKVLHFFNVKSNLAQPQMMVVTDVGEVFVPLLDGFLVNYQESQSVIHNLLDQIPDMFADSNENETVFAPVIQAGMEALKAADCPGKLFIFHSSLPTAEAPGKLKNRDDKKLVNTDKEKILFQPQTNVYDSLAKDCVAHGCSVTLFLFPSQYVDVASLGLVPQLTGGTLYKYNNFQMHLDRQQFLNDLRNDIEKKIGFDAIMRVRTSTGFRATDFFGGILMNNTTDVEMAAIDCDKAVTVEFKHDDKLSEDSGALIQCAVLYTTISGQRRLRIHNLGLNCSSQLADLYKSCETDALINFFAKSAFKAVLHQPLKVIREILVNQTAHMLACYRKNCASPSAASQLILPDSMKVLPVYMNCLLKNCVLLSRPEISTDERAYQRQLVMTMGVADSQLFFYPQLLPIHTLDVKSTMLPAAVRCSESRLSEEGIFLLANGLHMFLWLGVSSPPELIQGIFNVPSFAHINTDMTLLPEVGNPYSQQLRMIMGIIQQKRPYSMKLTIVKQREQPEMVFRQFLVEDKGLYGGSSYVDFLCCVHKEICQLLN
# UniProt Q99590: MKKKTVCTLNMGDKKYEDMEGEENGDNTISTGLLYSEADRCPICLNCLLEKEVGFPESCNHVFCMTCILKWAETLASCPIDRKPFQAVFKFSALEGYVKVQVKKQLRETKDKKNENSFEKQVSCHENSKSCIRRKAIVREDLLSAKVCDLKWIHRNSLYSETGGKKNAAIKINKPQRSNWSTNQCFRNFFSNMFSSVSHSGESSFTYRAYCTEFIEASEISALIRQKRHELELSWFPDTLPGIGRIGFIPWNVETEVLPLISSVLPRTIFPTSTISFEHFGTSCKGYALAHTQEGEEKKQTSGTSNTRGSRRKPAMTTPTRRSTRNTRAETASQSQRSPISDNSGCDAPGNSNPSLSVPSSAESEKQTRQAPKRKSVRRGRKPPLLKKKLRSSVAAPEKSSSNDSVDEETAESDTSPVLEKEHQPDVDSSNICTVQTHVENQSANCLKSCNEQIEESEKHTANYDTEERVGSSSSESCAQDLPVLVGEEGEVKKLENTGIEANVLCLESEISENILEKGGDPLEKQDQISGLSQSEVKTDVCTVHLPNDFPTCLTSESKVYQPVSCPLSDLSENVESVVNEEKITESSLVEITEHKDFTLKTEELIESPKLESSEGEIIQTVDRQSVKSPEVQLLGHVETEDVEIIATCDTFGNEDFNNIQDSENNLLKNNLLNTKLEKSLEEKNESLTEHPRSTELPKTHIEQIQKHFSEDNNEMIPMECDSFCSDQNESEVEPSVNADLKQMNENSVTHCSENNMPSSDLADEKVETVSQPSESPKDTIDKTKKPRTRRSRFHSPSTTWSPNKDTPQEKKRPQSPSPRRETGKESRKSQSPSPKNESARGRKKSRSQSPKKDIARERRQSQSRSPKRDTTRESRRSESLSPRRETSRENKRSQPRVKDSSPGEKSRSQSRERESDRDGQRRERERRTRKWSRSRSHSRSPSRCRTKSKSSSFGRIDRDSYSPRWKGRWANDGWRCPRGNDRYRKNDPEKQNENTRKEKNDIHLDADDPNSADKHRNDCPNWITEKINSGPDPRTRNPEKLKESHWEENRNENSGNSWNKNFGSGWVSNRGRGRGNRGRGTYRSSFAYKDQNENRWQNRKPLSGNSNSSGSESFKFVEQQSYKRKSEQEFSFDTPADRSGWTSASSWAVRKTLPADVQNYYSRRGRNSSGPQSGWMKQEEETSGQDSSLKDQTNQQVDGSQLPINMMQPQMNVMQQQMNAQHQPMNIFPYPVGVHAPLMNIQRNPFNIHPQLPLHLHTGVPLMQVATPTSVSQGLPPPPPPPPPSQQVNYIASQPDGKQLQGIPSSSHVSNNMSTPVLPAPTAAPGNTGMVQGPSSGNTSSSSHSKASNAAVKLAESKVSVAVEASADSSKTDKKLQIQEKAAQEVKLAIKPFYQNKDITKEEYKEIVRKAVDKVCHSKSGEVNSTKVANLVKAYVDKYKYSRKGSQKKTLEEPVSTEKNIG
# UniProt P53992: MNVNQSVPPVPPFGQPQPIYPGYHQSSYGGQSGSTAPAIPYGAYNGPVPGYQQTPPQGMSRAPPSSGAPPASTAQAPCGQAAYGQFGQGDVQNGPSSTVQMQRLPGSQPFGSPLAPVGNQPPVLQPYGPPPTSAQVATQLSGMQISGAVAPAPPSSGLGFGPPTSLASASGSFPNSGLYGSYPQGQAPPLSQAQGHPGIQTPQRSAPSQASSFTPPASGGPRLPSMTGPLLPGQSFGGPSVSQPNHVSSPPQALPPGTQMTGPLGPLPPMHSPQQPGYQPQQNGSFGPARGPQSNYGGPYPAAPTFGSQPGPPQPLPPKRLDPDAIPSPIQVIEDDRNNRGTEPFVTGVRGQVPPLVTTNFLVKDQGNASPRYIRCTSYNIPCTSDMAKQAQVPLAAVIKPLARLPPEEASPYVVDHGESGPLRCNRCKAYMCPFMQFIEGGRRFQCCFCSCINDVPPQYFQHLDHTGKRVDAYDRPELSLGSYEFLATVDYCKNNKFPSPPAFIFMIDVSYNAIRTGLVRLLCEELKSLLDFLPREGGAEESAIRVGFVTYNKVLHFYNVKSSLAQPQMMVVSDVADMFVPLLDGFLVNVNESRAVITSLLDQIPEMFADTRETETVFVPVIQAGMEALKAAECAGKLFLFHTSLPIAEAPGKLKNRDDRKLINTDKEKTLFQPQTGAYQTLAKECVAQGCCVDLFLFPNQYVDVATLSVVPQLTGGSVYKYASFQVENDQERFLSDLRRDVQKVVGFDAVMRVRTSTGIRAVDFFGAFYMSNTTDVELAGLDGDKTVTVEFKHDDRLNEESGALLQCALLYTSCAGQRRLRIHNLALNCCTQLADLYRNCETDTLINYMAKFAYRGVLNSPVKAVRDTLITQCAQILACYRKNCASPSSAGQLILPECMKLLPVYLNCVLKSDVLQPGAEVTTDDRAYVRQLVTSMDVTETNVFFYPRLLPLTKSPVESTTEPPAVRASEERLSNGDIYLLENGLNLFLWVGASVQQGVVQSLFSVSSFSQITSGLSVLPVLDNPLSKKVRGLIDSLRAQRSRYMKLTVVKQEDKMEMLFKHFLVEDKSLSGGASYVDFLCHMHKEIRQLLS
# UniProt Q15437: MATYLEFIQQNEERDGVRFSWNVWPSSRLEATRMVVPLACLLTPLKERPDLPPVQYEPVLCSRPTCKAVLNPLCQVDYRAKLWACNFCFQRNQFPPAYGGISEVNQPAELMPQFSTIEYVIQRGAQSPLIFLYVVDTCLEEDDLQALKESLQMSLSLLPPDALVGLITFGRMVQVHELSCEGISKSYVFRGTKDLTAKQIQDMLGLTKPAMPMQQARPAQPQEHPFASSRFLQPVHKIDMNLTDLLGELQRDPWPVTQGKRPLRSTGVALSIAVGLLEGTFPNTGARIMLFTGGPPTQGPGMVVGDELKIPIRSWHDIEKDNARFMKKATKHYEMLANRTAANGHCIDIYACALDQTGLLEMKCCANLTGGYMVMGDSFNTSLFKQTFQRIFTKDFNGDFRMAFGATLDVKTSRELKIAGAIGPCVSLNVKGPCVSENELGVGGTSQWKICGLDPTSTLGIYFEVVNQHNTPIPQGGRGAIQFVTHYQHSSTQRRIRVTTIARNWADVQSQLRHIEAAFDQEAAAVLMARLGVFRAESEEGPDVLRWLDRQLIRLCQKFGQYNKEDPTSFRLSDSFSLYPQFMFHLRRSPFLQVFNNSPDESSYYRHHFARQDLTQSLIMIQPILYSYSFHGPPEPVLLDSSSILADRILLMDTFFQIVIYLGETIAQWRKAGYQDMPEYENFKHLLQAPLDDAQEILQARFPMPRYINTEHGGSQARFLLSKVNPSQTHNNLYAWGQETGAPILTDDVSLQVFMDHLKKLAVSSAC
# UniProt Q96GD3: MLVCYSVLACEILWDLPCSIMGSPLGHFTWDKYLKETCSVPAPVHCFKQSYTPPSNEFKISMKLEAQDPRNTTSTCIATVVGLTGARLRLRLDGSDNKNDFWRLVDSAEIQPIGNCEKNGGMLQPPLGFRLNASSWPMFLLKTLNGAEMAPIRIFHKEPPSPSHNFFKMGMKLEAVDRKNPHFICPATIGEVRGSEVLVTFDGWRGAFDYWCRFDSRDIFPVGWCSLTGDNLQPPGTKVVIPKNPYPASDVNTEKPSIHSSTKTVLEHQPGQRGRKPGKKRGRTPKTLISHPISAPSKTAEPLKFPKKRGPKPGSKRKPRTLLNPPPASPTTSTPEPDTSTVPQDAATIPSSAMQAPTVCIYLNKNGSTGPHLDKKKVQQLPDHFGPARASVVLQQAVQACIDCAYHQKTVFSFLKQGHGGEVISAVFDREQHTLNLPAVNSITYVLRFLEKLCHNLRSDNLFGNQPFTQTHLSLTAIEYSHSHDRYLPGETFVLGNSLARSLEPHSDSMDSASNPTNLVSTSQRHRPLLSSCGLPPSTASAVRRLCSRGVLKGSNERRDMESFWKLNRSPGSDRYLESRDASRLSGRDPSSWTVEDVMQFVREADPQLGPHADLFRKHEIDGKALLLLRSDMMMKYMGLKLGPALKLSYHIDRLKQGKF
# UniProt Q9HD40: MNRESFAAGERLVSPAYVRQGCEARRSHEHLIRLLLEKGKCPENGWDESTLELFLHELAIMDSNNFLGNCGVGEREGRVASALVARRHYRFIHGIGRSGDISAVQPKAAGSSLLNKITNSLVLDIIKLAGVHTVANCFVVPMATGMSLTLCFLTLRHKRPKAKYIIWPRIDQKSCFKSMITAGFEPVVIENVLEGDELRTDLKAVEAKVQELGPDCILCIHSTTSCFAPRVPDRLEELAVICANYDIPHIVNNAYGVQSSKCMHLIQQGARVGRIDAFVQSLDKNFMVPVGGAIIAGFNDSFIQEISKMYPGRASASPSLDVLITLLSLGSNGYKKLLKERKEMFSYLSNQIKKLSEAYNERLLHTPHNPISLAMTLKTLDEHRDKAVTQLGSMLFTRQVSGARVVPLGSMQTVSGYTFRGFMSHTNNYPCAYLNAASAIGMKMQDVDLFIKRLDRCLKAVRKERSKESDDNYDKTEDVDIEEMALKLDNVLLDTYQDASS
# This is one part of the list.
# Compound: Cc1cc(ccc1-c1ccccc1)C(=O)N1CCCN(CC1)C(=O)CCl [compound 10]
# Test: probe-labelled cysteine peptide fold change vs DMSO (competition) (log2 fold change); higher = less target engagement (more negative = stronger competition)
# Details: 50 µM; THP-1; incubation time: 4 h
# 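Also: competitive profiling in live THP-1 cells: cysteine peptides tagged with an iodoacetamide desthiobiotin (IA-DTB) probe, intensity after compound treatment relative to DMSO-treated cells.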
row,Target,probe-labelled cysteine peptide fold change
1,SART3_Q15020_114_LEEQLSINVYDYNCHVDLIR (UniProt Q15020),0.159
2,SEC24D_O94855_1021_GLYGGSSYVDFLCCVHK (UniProt O94855),-0.572
3,SCRIB_Q14160_334_LTNLNVDRNHLEALPPEIGGCVALSVLSLR (UniProt Q14160),-0.354
4,SCAF11_Q99590_553_TDVCTVHLPNDFPTCLTSESK (UniProt Q99590),-0.092
5,SEC24B_O95487_1103_VYAMCQIK (UniProt O95487),-0.0589
6,SEC61A1_P61619_13_FLEVIKPFCVILPEIQKPER (UniProt P61619),-0.0241
7,SATB1_Q01826_78_KGTMLPVFCVVEHYENAIEYDCK (UniProt Q01826),0.501
8,SEC24C_P53992_816_HDDRLNEESGALLQCALLYTSCAGQR (UniProt P53992),0.222
9,SEL1L_Q9UBV2_127_KPALTAIEGTAHGEPCHFPFLFLDK (UniProt Q9UBV2),0.301
10,SDHA_P31040_443_HVNGQDQIVPGLYACGEAACASVHGANR (UniProt P31040),-0.195
11,SATB1_Q01826_209_ECPLSQSMISSIVNSTYYANVSAAK (UniProt Q01826),-0.391
12,SEC24D_O94855_853_NCVLLSRPEISTDER (UniProt O94855),-0.191
13,SART3_Q15020_821_EELEEICK (UniProt Q15020),0.166
14,SELENOO_Q9BVL4_629_LLETPYHCEAGAATDAEATEADGADGR (UniProt Q9BVL4),-0.5
15,SCRIB_Q14160_334_NHLEALPPEIGGCVALSVLSLR (UniProt Q14160),-0.214
16,SART3_Q15020_182_DYICPNIWLEYGQYSVGGIGQK (UniProt Q15020),0.164
17,SEMA4A_Q9H3S1_547_GNPEWACASGPMSR (UniProt Q9H3S1),-0.865
18,SDR39U1_Q9NRG7_78_ITWDELAASGLPSCDAAVNLAGENILNPLRR (UniProt Q9NRG7),0.479
19,SCRN1_Q12765_54_VECTYISIDQVPR (UniProt Q12765),0.121
20,SEC24C_P53992_816_LNEESGALLQCALLYTSCAGQR (UniProt P53992),0.248

row,Target,probe-labelled cysteine peptide fold change
1,SCFD2_Q8WU76_79_AVFVLSCLLK (UniProt Q8WU76),0.51
2,SEC23B_Q15437_61_ERPDLPPVQYEPVLCSR (UniProt Q15437),0.0833
3,SCRIB_Q14160_1082_DATHQEAVSALLRPCLELSLLVR (UniProt Q14160),-0.0996
4,SDSL_Q96GA7_38_CENVQPSGSFK (UniProt Q96GA7),-0.0604
5,SCAF11_Q99590_752_QMNENSVTHCSENNMPSSDLADEK (UniProt Q99590),-0.283
6,SCRIB_Q14160_864_HVACLAR (UniProt Q14160),-0.363
7,SCYL1_Q96KG9_88_CLHVVTEAVTPLGIYLK (UniProt Q96KG9),-0.0219
8,SCRIB_Q14160_1612_PSPGAVGPEDVALCSSR (UniProt Q14160),-0.534
9,SENP6_Q9GZR1_127_KLSENTQNTSLCSGTVVHGR (UniProt Q9GZR1),-0.339
10,SEC31A_O94979_216_MHCSGLAWHPDVATQMVLASEDDRLPVIQMWDLR (UniProt O94979),0.0273
11,SEC24C_P53992_448_FQCCFCSCINDVPPQYFQHLDHTGKR (UniProt P53992),0.0173
12,SATB1_Q01826_78_GTMLPVFCVVEHYENAIEYDCKEEHAEFVLVR (UniProt Q01826),-0.247
13,SEC23B_Q15437_434_GPCVSENELGVGGTSQWK (UniProt Q15437),-0.0746
14,SEC13_P55735_77_GHEGPVWQVAWAHPMYGNILASCSYDRK (UniProt P55735),0.149
15,SEC24C_P53992_881_DTLITQCAQILACYR (UniProt P53992),0.0715
16,SAP30L_Q9HAJ7_74_HLYICDFHK (UniProt Q9HAJ7),-0.578
17,SCMH1_Q96GD3_76_NTTSTCIATVVGLTGAR (UniProt Q96GD3),0.276
18,SCMH1_Q96GD3_116_LVDSAEIQPIGNCEK (UniProt Q96GD3),0.0953
19,SDF2L1_Q9HCN8_92_GGSEGGCPR (UniProt Q9HCN8),0.269
20,SEPSECS_Q9HD40_431_GFMSHTNNYPCAYLNAASAIGMK (UniProt Q9HD40),-0.0369
